Results from patent publication US8105745B2, “Radiation crosslinker” (National University of Singapore, priority 2005, dated 2012).

Test: film retention after 254-nm DUV photocrosslinking and development, PSSH film
Source text: FIG. 1 Normalized film thickness retention for (squares) PSSH (Mw=530 k) with I deposited from MeOH solution (dotted line as visual guide), photoexposed and developed with H2O; (diamond) PSSH with V, H2O, developed with H2O; (upright triangles) PSSNa (Mw=70 k) with V, H2O, developed with MeOH; (inverted triangle) PDAMC1 (Mw=400 k) with V, H2O, developed 3:1 i-PrOH—H2O; (circles) PEDT:PSSTMA conducting polyelectrolyte complex with V, H2O, developed with H2O. Starting film thickness was between 50-200 nm. Film thickness was measured by profilometry or ellipsometry, before and after development. Typically films with the appropriate concentration of the crosslinker were spin-cast onto clean pristine or APS-treated Si wafers, dehydrated at 100° C. for 5 min (PSSH and PEDT:PSSTMA) or more strongly at 130° C. for 20 min (PSSNa and PDAMC1) in the glovebox, exposed to 254-nm DUV (ca. 1 mW cm^−2, 3-5 min) in nitrogen, and developed accordingly. A typical error bar is indicated. […]
In this way, a poly(styrene sulfonic acid) (PSSH) film deposited from MeOH solution was successfully crosslinked with 1-10 wt % I upon DUV exposure. […] Therefore the film retention measured here is solely due to the crosslinker. […]

## N,N-dimethyl-N,N-dipropylene bis(4-azido-2,3,5,6-tetrafluorobenzamide) ammonium iodide
PSSH film from MeOH, 10 wt % crosslinker, 254-nm DUV 200 mJ cm^-2, developed with H2O
  developed film thickness (normalized to thickness before development): 0.92
PSSH film, 254-nm DUV
  exposure dose required for exhaustive reaction: 100-150 mJ cm^-2
